In paper PMC3929491:
Results are given in words; binding and its absence hold for the method and conditions named. In cells and extracts the contact can be indirect. Some entries that bind do so weakly or less than the wild type.

Chains of the proteins cited; added tags and fusions are not shown. Residues count along the entry.
UniProt P16070, residues 21-742: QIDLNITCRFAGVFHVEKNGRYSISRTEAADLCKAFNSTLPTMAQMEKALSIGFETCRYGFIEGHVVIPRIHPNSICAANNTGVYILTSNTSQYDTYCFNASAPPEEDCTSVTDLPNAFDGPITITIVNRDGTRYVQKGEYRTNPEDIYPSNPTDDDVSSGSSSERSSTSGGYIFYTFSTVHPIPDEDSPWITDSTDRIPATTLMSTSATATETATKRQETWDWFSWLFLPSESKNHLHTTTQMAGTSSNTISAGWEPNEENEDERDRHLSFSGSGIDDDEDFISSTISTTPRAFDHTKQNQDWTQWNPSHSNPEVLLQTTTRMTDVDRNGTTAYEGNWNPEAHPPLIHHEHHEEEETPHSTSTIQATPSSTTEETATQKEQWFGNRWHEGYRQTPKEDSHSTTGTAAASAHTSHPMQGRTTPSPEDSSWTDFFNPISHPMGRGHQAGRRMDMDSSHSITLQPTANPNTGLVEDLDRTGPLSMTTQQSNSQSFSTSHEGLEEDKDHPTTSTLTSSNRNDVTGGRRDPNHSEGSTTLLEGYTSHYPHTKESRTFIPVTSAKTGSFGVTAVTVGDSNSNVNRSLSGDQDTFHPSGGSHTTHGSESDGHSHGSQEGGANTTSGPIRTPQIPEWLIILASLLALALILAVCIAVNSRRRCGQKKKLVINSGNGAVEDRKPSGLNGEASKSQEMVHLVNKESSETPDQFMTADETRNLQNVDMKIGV
UniProt P29317, residues 24-976: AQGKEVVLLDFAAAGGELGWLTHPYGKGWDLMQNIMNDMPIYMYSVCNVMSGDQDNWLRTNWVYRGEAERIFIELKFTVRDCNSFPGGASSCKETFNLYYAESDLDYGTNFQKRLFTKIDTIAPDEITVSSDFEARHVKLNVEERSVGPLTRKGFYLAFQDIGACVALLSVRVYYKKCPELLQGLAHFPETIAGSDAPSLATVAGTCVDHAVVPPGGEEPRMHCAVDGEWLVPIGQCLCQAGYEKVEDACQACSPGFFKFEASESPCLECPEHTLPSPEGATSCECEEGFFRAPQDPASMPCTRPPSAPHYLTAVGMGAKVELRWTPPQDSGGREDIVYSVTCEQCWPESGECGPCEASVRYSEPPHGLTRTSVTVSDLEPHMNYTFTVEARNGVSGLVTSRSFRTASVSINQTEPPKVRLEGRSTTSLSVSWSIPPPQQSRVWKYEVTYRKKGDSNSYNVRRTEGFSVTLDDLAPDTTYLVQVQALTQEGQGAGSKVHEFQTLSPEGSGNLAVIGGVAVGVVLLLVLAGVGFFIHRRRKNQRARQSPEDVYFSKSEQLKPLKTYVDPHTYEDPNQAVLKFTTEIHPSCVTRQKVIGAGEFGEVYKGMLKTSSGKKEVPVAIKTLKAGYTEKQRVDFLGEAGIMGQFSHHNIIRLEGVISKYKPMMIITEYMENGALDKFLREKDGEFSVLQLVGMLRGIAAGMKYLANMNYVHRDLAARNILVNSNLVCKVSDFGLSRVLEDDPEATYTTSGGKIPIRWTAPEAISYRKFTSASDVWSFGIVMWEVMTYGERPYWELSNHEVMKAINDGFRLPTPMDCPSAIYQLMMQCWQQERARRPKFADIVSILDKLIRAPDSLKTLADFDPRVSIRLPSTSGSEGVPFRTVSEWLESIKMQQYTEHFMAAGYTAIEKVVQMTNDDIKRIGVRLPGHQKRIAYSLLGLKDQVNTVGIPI

Molecular target: CD44 (human (endogenous in HCC38)) (UniProt P16070)
Assay: co-IP; HCC38 lysate (100 mM Tris-HCl pH 7.5, 1% Brij35, 0.14 M NaCl, 1 mM CaCl2, 1 mM MnCl2), precleared, immunoprecipitated with anti-CD44 (clone 156-3C11)-protein G beads or control IgG beads, 4 h at 4°C; blot with anti-EphA2

Substance: EphA2 (from UniProt P29317 24-976) (receptor)
- binding: binds
